Laboratory results: PubChem BioAssay AID652272 (Drosophila RNAi Screening Center, 2013)
The screen tested about 21,000 reagents; shown is an unselected part of those with a known target gene and a result. In the full data, 503 (2.4%) are marked active. 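Raw plate light values, not normalised; calls rest on replicate z-scores that were not deposited; hits include reporter decreases as well as increases.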 Names joined by + are all predicted targets of the reagent. The record does not give: the amount of reagent, the time to read-out.

Screen: 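Genome-wide knock-down search for components of Hedgehog signalling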 (primary screen)
Cell system: Drosophila clone 8 (Cl8) cells
Knock-down reagent: long dsRNA against Drosophila genes
Read-out: 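Firefly light from a Hedgehog-responsive ptc promoter reporter and Renilla reference light, both read on a plate reader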
Reading the numbers: firefly Hh reporter signal: higher = more ptc reporter light; Renilla reference signal: higher = more Renilla control light
Active means: 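Hit when the z-score averaged over two replicates is under -2 or over +3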
Calls: active = hit: reporter lowered or raised; inactive = not a hit

predicted target | dsRNA | firefly Hh reporter signal, replicate 1 | firefly Hh reporter signal, replicate 2 | firefly Hh reporter signal, replicate 3 | Renilla reference signal, replicate 1 | Renilla reference signal, replicate 2 | activity call
Ravus | DRSC15126 | 71690 | 49665 | – | 2400 | 1554 | inactive
CG6614 | DRSC02974 | 97275 | 57259 | – | 4112 | 2852 | inactive
CG4286 | DRSC04459 | 75860 | 58744 | – | 1552 | 4085 | inactive
CG16952 | DRSC19759 | 55529 | 10540 | – | 1852 | 432 | inactive
CR42548 (pseudo) | DRSC09514 | 2.79e5 | – | – | 6278 | – | inactive
Ugt49C1 (UDP-glycosyltransferase family 49 member C1) | DRSC04252 | 91685 | 52060 | – | 2432 | 4768 | inactive
mRpL54 (mitochondrial ribosomal protein L54) | DRSC04545 | 1.52e5 | 87892 | – | 4759 | 3065 | inactive
amd (alpha methyl dopa-resistant) | DRSC02608 | 1.03e5 | 77737 | – | 2450 | 7347 | inactive
amd (alpha methyl dopa-resistant) | DRSC03483 | 85482 | 47824 | – | 2240 | 5158 | inactive
RYBP (Ring and YY1 Binding Protein) | DRSC04117 | 74195 | 82930 | – | 3188 | 3392 | inactive
CG14414 | DRSC19599 | 94054 | 2.12e5 | – | 2676 | 9777 | inactive
galectin | DRSC00305 | 97149 | 68369 | – | 2464 | 1320 | inactive
CG9452 | DRSC11075 | 1.12e5 | 87650 | – | 3949 | 2448 | inactive
CG10748 | DRSC09797 | 31683 | 48242 | 40506 | 4832 | 3034 | inactive
Lcp1 (Larval cuticle protein 1) | DRSC07455 | 1.06e5 | 69712 | – | 2491 | 5212 | inactive
CG9018 | DRSC08618 | 95287 | 36525 | – | 3001 | 3382 | inactive
CG14866 | DRSC14989 | 98610 | 1.10e5 | – | 2683 | 2370 | inactive
CG17440 | DRSC18126 | 83317 | 2.39e5 | – | 2164 | 8906 | inactive
RagC-D (Ras-related GTP binding C/D) | DRSC07239 | 75683 | 83697 | – | 2521 | 3306 | inactive
mRpS28 (mitochondrial ribosomal protein S28) | DRSC06939 | 1.33e5 | 67508 | – | 3360 | 4475 | inactive
TwdlU (TweedleU) | DRSC12224 | 1.11e5 | 1.29e5 | – | 4221 | 3872 | inactive
Coprox (Coproporphyrinogen oxidase) | DRSC01996 | 40176 | 38042 | – | 2802 | 1638 | inactive
CG18605 | DRSC06772 | 1.52e5 | 50069 | – | 4027 | 979 | inactive
CG7309 | DRSC03045 | 1.51e5 | 94032 | – | 3571 | 7526 | inactive
eater | DRSC15969 | 1.47e5 | 7.95e5 | 1.64e5 | 3733 | 5011 | inactive
Rnmt (RNA guanine-7 methyltransferase) | DRSC03558 | 90961 | 60045 | – | 2294 | 4688 | inactive
Xxylt (Xyloside xylosyltransferase) | DRSC04107 | 1.04e5 | 1.28e5 | – | 4730 | 5196 | inactive
CG7251 | DRSC03039 | 65045 | 48599 | – | 2754 | 1988 | inactive
CG7786 | DRSC07045 | 1.06e5 | 72825 | – | 2820 | 4247 | inactive
CG14362 | DRSC14824 | 1.08e5 | 93222 | – | 3955 | 2755 | inactive
Ptip (PAX transcription activation domain interacting protein) | DRSC10660 | 99980 | – | – | 1450 | 2400 | inactive
Ptip (PAX transcription activation domain interacting protein) | DRSC11048 | 45283 | – | – | 3302 | 1672 | active
Obp99b (Odorant-binding protein 99b) | DRSC16264 | 74080 | 82454 | – | 2868 | 2568 | inactive
mew (multiple edematous wings) | DRSC18971 | 3.94e5 | 2.25e5 | – | 22717 | 5304 | inactive
mew (multiple edematous wings) | DRSC20352 | 60433 | 2.34e5 | – | 1530 | 7745 | inactive
CG43064 | DRSC09133 | 89636 | 2.04e5 | – | 2539 | 8545 | inactive
Gr22f (Gustatory receptor 22f) | DRSC00076 | 7.11e5 | 3.40e5 | – | 35364 | 13296 | inactive
Sfp53D (Seminal fluid protein 53D) | DRSC05625 | 1.16e5 | 2.28e5 | – | 3368 | 8667 | inactive
CG42269 | DRSC10670 | 46337 | 53512 | – | 3837 | 3485 | inactive
CG42269 | DRSC10672 | 45158 | 40601 | – | 4425 | 3600 | inactive
ETHR | DRSC15915 | 4.40e5 | 1.78e5 | – | 21147 | 3680 | inactive
Tep1 (Thioester-containing protein 1) | DRSC03450 | 65075 | 50805 | – | 1697 | 4659 | inactive
CG5535 | DRSC10514 | 78816 | 58071 | – | 3792 | 2625 | inactive
CCHa1-R (CCHamide-1 receptor) | DRSC06456 | 88560 | 58284 | – | 2423 | 4023 | inactive
CCHa1-R (CCHamide-1 receptor) | DRSC06715 | 86377 | 43869 | – | 2565 | 3152 | inactive
CG6026 | DRSC15950 | 4.64e5 | 78915 | – | 31098 | 2600 | inactive
COX3 (retired record) | DRSC21279 | 72442 | 1.87e5 | – | 1421 | 7904 | inactive
CG14757 | DRSC06492 | 97936 | 55648 | – | 2245 | 4096 | inactive
Ppox (Protoporphyrinogen oxidase) | DRSC17033 | 5.37e5 | 88000 | – | 26806 | 2722 | inactive
CG34320 (retired record) | DRSC17682 | 6.58e5 | 2.70e5 | – | 32761 | 5248 | inactive
Ire1 (Inositol-requiring enzyme-1) | DRSC15606 | 5.69e5 | 81235 | – | 27463 | 2614 | inactive
CG33630 | DRSC14546 | 66437 | 87216 | – | 2375 | 2503 | inactive
hpRNA:CR18854 + IP3K1 | DRSC02218 | 1.14e5 | 53248 | – | 4466 | 2461 | inactive
EbpIII (Ejaculatory bulb protein III) | DRSC04638 | 55632 | 43575 | – | 1193 | 3907 | inactive
foxo (forkhead box, sub-group O) | DRSC13017 | 38965 | 21840 | – | 1349 | 3735 | inactive
foxo (forkhead box, sub-group O) | DRSC15463 | 1.55e5 | 1.23e5 | – | 5622 | 4661 | inactive
CG10431 | DRSC02055 | 74676 | 35820 | – | 1957 | 4077 | inactive
